In the experiment the target is T1, E-selectin Ig chimera (human) (UniProt P16581).
T1 sequence (looked up): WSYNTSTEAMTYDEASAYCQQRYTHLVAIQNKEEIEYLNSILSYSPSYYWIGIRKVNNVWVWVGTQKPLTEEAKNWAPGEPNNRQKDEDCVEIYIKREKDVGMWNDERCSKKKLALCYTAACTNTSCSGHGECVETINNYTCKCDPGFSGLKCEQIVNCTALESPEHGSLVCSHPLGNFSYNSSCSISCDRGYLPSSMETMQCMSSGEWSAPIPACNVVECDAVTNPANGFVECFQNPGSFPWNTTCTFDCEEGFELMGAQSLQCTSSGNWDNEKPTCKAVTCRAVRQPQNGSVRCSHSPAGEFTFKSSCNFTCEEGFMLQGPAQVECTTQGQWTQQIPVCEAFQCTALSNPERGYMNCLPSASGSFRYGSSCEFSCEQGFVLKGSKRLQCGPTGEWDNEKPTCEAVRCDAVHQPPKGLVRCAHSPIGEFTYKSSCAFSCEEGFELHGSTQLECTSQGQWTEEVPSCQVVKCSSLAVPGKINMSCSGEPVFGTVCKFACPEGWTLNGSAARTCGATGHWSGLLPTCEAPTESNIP
The experiment is described as follows: adhesion of 51Cr-labelled transfected COS cells to immobilized E-selectin Ig.

Results are given in words; binding and its absence hold for the method and conditions named. Some results given as binding are weak or reduced against the parent protein; the word gives no strength.

B1: PSGL-1 residues 38-57 with tyrosines converted to phenylalanine, on the CD43 repeat elements and transmembrane domain (ligand, not shown: small tags and cut ends)
chain: RDRRQATEFEFLDFDFLPETITTNSPETSSRTSGAPVTTAASSLETSRGTSGPPLTMATVSLETSKGTSGPPVTMATDSLETSTGTTGPPVTMTTGSLEPSSGASGPQVSS
Take B1: the binding result is given as “binds”.

Values taken from patent US7399847 (GENERAL HOSPITAL, dated 2008).
